From the supplement of paper PMC10849652
The list shows a part of the results.

The chains behind the UniProt entries cited, without tags or fusion partners. Where a name states a change or a piece, a line headed by the entry shows the natural chain unless it says otherwise.
UniProt Q9UBH6: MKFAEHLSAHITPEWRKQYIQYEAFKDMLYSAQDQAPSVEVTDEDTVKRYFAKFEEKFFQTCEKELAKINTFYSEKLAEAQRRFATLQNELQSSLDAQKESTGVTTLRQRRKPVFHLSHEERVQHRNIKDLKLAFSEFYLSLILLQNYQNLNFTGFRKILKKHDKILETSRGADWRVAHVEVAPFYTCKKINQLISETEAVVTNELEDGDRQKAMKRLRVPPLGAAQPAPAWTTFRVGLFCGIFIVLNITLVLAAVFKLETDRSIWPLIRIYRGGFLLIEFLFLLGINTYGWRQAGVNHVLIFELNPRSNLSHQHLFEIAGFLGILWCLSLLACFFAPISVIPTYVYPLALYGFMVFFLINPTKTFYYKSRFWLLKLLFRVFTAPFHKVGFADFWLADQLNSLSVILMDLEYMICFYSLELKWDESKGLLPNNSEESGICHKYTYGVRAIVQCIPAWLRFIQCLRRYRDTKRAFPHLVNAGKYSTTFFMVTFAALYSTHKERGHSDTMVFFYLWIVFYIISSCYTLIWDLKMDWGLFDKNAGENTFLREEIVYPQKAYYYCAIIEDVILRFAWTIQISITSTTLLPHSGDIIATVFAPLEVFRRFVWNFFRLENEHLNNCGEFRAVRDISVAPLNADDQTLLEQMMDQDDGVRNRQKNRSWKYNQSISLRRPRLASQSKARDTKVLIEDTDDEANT
UniProt Q9BQ24: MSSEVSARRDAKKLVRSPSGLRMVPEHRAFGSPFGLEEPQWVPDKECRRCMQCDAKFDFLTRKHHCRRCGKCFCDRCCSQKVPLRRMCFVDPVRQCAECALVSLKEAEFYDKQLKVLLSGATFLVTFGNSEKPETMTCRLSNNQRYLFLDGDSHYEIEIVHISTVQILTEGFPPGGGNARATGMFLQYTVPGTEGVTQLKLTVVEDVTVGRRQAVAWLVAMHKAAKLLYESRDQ
UniProt Q9H0D6: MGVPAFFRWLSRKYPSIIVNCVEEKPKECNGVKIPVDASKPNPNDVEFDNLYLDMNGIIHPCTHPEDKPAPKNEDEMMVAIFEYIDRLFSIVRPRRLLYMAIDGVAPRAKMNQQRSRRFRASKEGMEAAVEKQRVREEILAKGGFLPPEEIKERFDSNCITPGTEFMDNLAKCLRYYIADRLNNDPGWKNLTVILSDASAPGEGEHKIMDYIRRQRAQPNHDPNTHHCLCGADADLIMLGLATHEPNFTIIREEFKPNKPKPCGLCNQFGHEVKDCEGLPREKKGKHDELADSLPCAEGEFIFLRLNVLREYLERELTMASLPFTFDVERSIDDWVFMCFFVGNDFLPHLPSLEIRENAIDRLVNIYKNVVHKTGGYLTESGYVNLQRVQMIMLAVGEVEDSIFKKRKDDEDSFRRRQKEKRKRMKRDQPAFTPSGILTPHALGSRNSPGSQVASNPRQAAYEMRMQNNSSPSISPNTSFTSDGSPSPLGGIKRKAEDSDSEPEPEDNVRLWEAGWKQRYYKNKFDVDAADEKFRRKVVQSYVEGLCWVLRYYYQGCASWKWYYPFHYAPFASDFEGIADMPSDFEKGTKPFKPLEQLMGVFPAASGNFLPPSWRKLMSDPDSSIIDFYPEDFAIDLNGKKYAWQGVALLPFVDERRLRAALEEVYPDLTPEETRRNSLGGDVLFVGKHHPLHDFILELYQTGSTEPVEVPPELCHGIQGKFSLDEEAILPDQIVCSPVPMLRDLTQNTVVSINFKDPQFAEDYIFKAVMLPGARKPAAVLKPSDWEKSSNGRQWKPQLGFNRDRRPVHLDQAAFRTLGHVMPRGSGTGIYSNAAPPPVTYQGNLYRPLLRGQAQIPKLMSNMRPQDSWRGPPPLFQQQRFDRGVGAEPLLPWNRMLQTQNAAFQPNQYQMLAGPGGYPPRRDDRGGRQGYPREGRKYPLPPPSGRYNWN
UniProt Q96DT7: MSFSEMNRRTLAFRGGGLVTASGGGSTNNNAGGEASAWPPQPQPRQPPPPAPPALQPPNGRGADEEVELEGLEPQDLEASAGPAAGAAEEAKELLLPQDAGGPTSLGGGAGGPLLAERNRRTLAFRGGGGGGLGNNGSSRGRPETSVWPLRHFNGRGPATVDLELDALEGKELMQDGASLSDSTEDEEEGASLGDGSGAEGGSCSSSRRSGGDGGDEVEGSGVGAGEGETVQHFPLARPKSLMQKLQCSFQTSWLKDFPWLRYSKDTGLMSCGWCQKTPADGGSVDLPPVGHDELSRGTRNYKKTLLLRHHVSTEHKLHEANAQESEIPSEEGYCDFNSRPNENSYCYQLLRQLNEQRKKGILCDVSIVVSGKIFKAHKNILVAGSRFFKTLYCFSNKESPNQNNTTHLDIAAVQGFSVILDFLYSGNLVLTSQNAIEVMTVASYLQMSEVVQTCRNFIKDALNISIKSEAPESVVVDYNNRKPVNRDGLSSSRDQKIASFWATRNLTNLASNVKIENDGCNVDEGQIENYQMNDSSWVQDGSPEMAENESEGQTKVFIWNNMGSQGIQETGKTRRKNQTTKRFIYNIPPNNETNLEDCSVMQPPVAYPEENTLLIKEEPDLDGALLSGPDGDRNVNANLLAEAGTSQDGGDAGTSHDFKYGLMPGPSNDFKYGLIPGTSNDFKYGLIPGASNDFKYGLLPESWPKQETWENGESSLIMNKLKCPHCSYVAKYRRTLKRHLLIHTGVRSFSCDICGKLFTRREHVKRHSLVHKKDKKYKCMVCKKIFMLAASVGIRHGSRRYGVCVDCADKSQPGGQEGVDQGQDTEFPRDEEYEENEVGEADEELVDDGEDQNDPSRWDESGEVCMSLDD
UniProt Q5T4F4: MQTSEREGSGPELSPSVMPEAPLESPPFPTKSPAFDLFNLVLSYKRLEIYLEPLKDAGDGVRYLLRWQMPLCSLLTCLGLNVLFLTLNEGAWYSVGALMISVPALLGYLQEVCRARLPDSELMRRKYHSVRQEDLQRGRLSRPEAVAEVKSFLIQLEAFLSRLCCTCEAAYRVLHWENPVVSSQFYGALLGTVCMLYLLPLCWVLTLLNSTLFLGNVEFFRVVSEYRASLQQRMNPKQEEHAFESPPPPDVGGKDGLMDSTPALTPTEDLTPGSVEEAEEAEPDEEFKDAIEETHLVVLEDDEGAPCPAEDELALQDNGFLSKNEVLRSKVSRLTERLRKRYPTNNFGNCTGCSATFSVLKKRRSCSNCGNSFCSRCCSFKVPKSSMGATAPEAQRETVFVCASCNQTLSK
UniProt Q86U90: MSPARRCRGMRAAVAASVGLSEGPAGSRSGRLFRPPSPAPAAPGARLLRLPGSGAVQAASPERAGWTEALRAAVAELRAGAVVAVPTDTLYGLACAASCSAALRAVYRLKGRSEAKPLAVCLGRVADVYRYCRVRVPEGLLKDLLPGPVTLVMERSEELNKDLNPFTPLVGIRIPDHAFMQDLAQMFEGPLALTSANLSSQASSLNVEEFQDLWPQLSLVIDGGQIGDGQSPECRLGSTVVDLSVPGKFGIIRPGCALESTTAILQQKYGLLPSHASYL
UniProt P54577: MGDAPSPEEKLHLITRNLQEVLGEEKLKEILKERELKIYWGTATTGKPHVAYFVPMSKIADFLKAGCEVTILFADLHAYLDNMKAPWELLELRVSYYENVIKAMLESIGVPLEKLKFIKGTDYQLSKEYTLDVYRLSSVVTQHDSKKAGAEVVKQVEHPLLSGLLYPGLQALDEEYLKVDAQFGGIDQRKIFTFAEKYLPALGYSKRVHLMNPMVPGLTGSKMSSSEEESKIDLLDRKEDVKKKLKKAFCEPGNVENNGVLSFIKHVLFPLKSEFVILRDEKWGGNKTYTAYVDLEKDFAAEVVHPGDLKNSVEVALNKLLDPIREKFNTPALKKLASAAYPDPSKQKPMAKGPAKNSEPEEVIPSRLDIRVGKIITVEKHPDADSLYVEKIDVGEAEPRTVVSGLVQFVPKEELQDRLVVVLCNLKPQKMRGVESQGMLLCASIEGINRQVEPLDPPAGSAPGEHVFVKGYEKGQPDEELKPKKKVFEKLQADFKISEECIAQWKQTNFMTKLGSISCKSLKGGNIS
UniProt Q8NBI6: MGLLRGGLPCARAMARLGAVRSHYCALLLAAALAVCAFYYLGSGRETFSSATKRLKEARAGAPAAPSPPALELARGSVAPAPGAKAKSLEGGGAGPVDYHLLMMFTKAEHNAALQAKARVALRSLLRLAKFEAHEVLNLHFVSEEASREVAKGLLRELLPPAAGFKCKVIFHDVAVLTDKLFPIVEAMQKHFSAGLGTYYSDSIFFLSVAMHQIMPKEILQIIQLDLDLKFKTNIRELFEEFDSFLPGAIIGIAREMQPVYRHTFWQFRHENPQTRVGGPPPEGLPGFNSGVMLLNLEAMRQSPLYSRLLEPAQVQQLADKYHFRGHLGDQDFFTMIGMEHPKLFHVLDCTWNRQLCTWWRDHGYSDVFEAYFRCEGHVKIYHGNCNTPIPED
UniProt P16989, whole entry, looked up: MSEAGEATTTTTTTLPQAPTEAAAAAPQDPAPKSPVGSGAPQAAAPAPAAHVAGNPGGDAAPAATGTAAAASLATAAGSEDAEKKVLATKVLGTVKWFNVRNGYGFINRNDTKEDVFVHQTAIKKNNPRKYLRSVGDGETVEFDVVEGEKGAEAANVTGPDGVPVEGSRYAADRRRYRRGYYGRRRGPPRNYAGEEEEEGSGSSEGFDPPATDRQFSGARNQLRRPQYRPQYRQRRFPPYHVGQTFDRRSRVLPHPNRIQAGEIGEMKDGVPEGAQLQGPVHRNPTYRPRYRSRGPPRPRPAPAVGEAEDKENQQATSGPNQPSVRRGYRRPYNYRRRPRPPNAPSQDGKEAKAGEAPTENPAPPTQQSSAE
UniProt Q8IY57: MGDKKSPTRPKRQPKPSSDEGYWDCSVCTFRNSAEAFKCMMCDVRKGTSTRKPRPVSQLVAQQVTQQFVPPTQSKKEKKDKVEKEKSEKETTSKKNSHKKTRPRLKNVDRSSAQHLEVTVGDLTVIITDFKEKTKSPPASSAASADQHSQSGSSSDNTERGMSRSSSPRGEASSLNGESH
UniProt Q5W0Z9: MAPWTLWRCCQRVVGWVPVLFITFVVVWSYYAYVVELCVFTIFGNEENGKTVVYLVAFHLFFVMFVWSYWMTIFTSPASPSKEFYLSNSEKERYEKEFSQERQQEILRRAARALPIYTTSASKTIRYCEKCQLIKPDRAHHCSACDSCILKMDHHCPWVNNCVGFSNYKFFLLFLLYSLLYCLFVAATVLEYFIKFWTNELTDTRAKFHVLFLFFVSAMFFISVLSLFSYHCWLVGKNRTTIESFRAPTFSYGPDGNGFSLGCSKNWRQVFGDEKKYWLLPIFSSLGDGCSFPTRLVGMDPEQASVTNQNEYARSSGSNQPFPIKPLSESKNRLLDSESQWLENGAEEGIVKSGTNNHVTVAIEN
UniProt O95365: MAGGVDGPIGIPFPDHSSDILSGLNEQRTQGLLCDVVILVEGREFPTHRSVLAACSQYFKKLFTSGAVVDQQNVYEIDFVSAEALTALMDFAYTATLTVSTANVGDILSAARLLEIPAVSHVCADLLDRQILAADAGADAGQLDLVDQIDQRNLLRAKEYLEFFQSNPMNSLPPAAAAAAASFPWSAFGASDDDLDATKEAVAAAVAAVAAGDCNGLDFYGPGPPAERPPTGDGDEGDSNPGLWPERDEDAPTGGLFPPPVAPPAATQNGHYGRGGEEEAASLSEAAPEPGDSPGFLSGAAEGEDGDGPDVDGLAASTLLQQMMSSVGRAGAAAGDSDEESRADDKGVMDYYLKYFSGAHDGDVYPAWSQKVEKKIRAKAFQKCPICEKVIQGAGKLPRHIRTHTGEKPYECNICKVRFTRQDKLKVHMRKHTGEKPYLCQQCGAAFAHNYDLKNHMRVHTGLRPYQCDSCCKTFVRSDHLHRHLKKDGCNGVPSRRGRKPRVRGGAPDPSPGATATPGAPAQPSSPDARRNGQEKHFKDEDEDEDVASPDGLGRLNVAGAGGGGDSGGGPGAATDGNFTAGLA

Experiments:
Assay in all cases: log2 fold change, soluble protein after heating vs DMSO (PISA); higher = thermal stabilisation; K562 lysate, 10 uM; active = over 0.2 and 3.5 SD of the protein, either way, in both replicates (recomputed)
[1] = compound: CCCS(=O)(=O)Nc1ccc(F)c(C(=O)c2c[nH]c3ncc(-c4ccc(Cl)cc4)cc23)c1F [vemurafenib]
Procedure, shortened: (§1)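 Thermal stability, expressed as log-two fold change relative to solvent controls, is given from duplicates. Crude K562 extract in PBS pH 7.4 with 1 mM MgCl2, at 1 mg/mL protein, was treated with 10 μM compound for 30 min and heated in aliquots for 3 min across 48°C-58°C. After pooling, adjustment to 0.5% NP-40 at 4°C and centrifugation at 21,000xg for 90 min, supernatant protein was measured by TMTpro 16plex LC-MS/MS with channel sums equalised.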

[2] = compound: CCCS(=O)(=O)Nc1ccc(F)c(C(=O)c2c[nH]c3ncc(Cl)cc23)c1F
Procedure, shortened: as §1

[3] = compound: CCN(CCCOc1ccc2c(Nc3cc(CC(=O)Nc4cccc(F)c4)[nH]n3)ncnc2c1)CCOP(=O)(O)O [barasertib]
Procedure, shortened: as §1

[4] = compound: CC[C@@H]1C(=O)N(C)c2cnc(Nc3ccc(C(=O)NC4CCN(C)CC4)cc3OC)nc2N1C1CCCC1
Procedure, shortened: as §1

[5] = compound: CC[C@@H]1C(=O)N(C)c2cnc(Nc3ccc(C(=O)N[C@H]4CC[C@H](N5CCN(CC6CC6)CC5)CC4)cc3OC)nc2N1C(C)C [volasertib]
Procedure, shortened: as §1

[6] = compound: CCn1c(C(=O)N(C2CC2)C2CC2)cc2c3c(ncn3C)c(Nc3cc(C)n(C)n3)nc21
Procedure, shortened: as §1

[7] = compound: CCn1cc(-c2ccnc3[nH]c(-c4cccc(CN(C)C)c4)cc23)c(-c2ccc(NC(=O)N(C)C)cc2)n1
Procedure, shortened: as §1

[8] = compound: CN1CCC(CNc2ccc3ncc(-c4cccc(OC(F)(F)F)c4)n3n2)CC1
Procedure, shortened: as §1

[9] = compound: CN1CCN(CCOc2cc(OC3CCOCC3)c3c(Nc4c(Cl)ccc5c4OCO5)ncnc3c2)CC1 [saracatinib]
Procedure, shortened: as §1

[10] = compound: CN1CCN(c2nc(C3=C(c4c[nH]c5ccccc45)C(=O)NC3=O)c3ccccc3n2)CC1 [sotrastaurin]
Procedure, shortened: as §1

[11] = compound: CN1CC[C@H](c2c(O)cc(O)c3c(=O)cc(-c4ccccc4Cl)oc23)[C@H](O)C1 [alvocidib]
Procedure, shortened: as §1

[12] = compound: CN1CCc2c(c3ccccc3n2Cc2ccc(C(=O)NO)cc2)C1 [Tubastatin A]
Procedure, shortened: as §1

[13] = compound: CNC(=O)C1=CC=CC=C1NC2=NC(=NC=C2Cl)NC3=C(C=C(C=C3)N4CCOCC4)OC
Procedure, shortened: as §1

[14] = compound: CNC(=O)c1ccc(Nc2ncc(C(F)(F)F)c(NCc3nccnc3N(C)S(C)(=O)=O)n2)cc1 [defactinib]
Procedure, shortened: as §1

[15] = compound: CNc1nc(-c2ccc3c(N)n[nH]c3c2)cc(N2C[C@@H](C(=O)NC3CCCCC3)CC[C@H]2C)n1
Procedure, shortened: as §1

[16] = compound: COC(=O)N[C@@H](C)CNc1nccc(-c2cn(C(C)C)nc2-c2cc(Cl)cc(NS(C)(=O)=O)c2F)n1 [encorafenib]
Procedure, shortened: as §1

[17] = compound: COC(=O)[C@H](CCSC)NC(=O)C1=C(C=C(C=C1)NC[C@H](CS)N)C2=CC=CC=C2
Procedure, shortened: as §1

[18] = compound: COc1cc(Nc2ncc3c(n2)-c2ccc(Cl)cc2C(c2c(F)cccc2OC)=NC3)ccc1C(=O)O [alisertib]
Procedure, shortened: as §1

[19] = compound: COc1cc2nc(-c3cc(F)ccc3O)nc(N[C@@H]3CNC[C@H]3C(C)(C)O)c2cc1OC
Procedure, shortened: as §1

[20] = compound: COc1cc2ncnc(Nc3ccc(F)c(Cl)c3)c2cc1OCCCN1CCOCC1 [gefitinib]
Procedure, shortened: as §1

Measured: log2 fold change

XPR1 (UniProt Q9UBH6)
inactive: [1] -0.033 | [2] 0.001 | [3] 0.004 | [4] 0.083 | [5] -0.084 | [6] 0.016 | [7] 0 | [8] -0.001 | [9] -0.062 | [10] 0.063 | [11] -0.005 | [12] -0.013 | [13] 0.145 | [14] -0.026 | [15] 0.001 | [16] 0.031 | [17] 0.035 | [18] -0.057 | [19] -0.014 | [20] 0.032

ZFYVE21 isoform 2 (UniProt Q9BQ24)
inactive: [1] 0 | [2] -0.024 | [3] 0.024 | [4] 0.053 | [5] -0.239 | [6] -0.11 | [7] -0.009 | [8] 0.023 | [9] 0.056 | [10] 0.036 | [11] -0.021 | [12] -0.141 | [14] 0.023 | [15] 0.099 | [16] 0.049 | [17] -0.081 | [18] -0.034 | [19] 0.083 | [20] 0.014

XRN2 (UniProt Q9H0D6)
inactive: [1] -0.078 | [2] -0.009 | [3] -0.054 | [4] 0.017 | [5] -0.005 | [6] 0.02 | [7] 0.037 | [8] 0.013 | [9] -0.012 | [10] -0.018 | [11] -0.01 | [12] -0.009 | [13] 0.002 | [14] 0.027 | [15] 0.005 | [16] 0.027 | [17] 0.046 | [18] -0.004 | [19] -0.041 | [20] 0.031

ZBTB10 (UniProt Q96DT7)
inactive: [1] -0.006 | [2] -0.084 | [3] 0.132 | [4] 0.065 | [5] -0.015 | [6] -0.008 | [7] -0.023 | [8] -0.063 | [9] 0.119 | [10] 0.07 | [11] -0.069 | [12] -0.006 | [13] -0.032 | [14] 0.051 | [15] -0.008 | [16] -0.026 | [17] 0.028 | [19] 0.003

ZFYVE27 isoform 2 (UniProt Q5T4F4)
inactive: [1] 0.004 | [2] 0.102 | [3] 0.016 | [4] -0.068 | [5] -0.001 | [6] -0.041 | [9] 0.109 | [10] 0.061 | [12] 0.114 | [13] 0.096 | [14] 0.011 | [15] -0.019 | [16] 0.061 | [17] -0.218 | [19] -0.029

YRDC (UniProt Q86U90)
inactive: [1] 0.03 | [2] 0.093 | [3] 0.019 | [4] 0.04 | [5] -0.005 | [6] -0.045 | [7] -0.019 | [8] 0.089 | [9] -0.043 | [10] -0.002 | [11] 0.015 | [12] -0.006 | [13] 0.044 | [14] -0.023 | [15] 0.043 | [16] 0.003 | [17] -0.1 | [18] -0.014 | [19] -0.004 | [20] -0.001

YARS (UniProt P54577)
inactive: [1] -0.008 | [2] -0.012 | [3] -0.015 | [4] -0.041 | [5] -0.031 | [6] 0.014 | [7] -0.031 | [8] -0.034 | [9] 0.019 | [10] -0.02 | [11] 0.031 | [12] -0.038 | [13] -0.024 | [14] -0.007 | [15] -0.009 | [16] -0.023 | [17] 0.11 | [18] 0 | [19] 0.018 | [20] -0.022

ZBTB21 (UniProt Q9ULJ3)
inactive: [1] 0.031 | [2] 0.03 | [3] -0.007 | [4] 0.232 | [5] -0.022 | [6] -0.042 | [7] -0.105 | [8] 0.062 | [9] 0.034 | [10] -0.011 | [11] -0.077 | [12] -0.033 | [13] -0.071 | [14] 0.033 | [15] 0.059 | [16] 0.038 | [17] -0.176 | [18] 0.074 | [19] 0.042 | [20] -0.036

XXYLT1 (UniProt Q8NBI6)
inactive: [1] 0.089 | [2] 0.028 | [3] 0.031 | [4] -0.038 | [5] -0.014 | [6] -0.001 | [7] 0.018 | [8] 0.026 | [9] 0.029 | [10] -0.012 | [11] -0.002 | [12] 0.065 | [13] 0.042 | [14] 0.023 | [15] -0.026 | [16] 0.122 | [17] 0.043 | [18] 0.014 | [19] -0.008 | [20] 0.056

YBX3 isoform 2 (UniProt P16989)
inactive: [1] 0.036 | [2] -0.003 | [3] -0.118 | [4] 0.064 | [5] -0.003 | [6] 0.179 | [7] 0.129 | [8] 0.03 | [9] -0.06 | [10] 0.068 | [11] -0.039 | [12] -0.043 | [13] 0.01 | [14] 0.077 | [15] -0.144 | [16] 0.032 | [17] -0.06 | [18] -0.084 | [19] -0.008 | [20] 0.056

YTHDC1 (UniProt Q96MU7)
inactive: [1] 0.006 | [2] -0.002 | [3] -0.063 | [4] 0.085 | [5] -0.029 | [7] -0.013 | [8] 0.025 | [9] 0.086 | [10] -0.067 | [11] -0.14 | [14] 0.271 | [15] -0.644 | [16] -0.167 | [17] -0.062 | [18] -0.215 | [19] 0.031 | [20] 0.114

YWHAZ (UniProt E7ESK7)
inactive: [1] -0.095 | [2] 0.034 | [3] 0.146 | [4] 0.134 | [5] 0.061 | [7] 0.114 | [8] 0.134 | [9] -0.018 | [10] -0.118 | [11] -0.013 | [13] -0.011 | [14] -0.035 | [15] -0.086 | [16] 0.15 | [17] -0.003 | [19] 0.005

ZC3H18 (UniProt E7ERS3)
inactive: [1] -0.002 | [2] 0.005 | [3] 0 | [4] -0.004 | [5] -0.018 | [6] 0.017 | [7] -0.008 | [8] -0.004 | [9] 0.043 | [10] -0.03 | [11] -0.004 | [12] -0.083 | [13] 0.017 | [14] 0.013 | [15] 0.001 | [16] 0.076 | [17] -0.022 | [18] 0 | [19] -0.017 | [20] -0.017

YAF2 isoform 5 (UniProt Q8IY57)
inactive: [1] 0.171 | [2] 0.011 | [3] -0.009 | [4] 0.147 | [5] 0.03 | [6] 0.061 | [7] 0.102 | [8] -0.072 | [9] 0.021 | [10] 0.013 | [11] 0.107 | [12] -0.027 | [13] 0.133 | [14] -0.029 | [15] 0.083 | [16] -0.033 | [17] -0.067 | [19] 0.026

Quoted at random: two entries already listed, in no set order.
ZC3H18 (UniProt E7ERS3)
inactive: [1] -0.002 | [2] 0.005 | [3] 0 | [4] -0.004 | [5] -0.018 | [6] 0.017 | [7] -0.008 | [8] -0.004 | [9] 0.043 | [10] -0.03 | [11] -0.004 | [12] -0.083 | [13] 0.017 | [14] 0.013 | [15] 0.001 | [16] 0.076 | [17] -0.022 | [18] 0 | [19] -0.017 | [20] -0.017

YRDC (UniProt Q86U90)
inactive: [1] 0.03 | [2] 0.093 | [3] 0.019 | [4] 0.04 | [5] -0.005 | [6] -0.045 | [7] -0.019 | [8] 0.089 | [9] -0.043 | [10] -0.002 | [11] 0.015 | [12] -0.006 | [13] 0.044 | [14] -0.023 | [15] 0.043 | [16] 0.003 | [17] -0.1 | [18] -0.014 | [19] -0.004 | [20] -0.001

Next records follow.

ZDHHC20 (UniProt Q5W0Z9)
inactive: [1] 0.015 | [2] 0.007 | [3] 0.169 | [4] -0.006 | [5] -0.046 | [7] 0.067 | [8] -0.02 | [9] -0.003 | [10] 0.076 | [11] 0.007 | [14] 0.019 | [15] -0.019 | [16] 0.043 | [17] -0.002 | [19] -0.04

ZBTB7A (UniProt O95365)
inactive: [1] 0.104 | [2] 0.138 | [3] 0.004 | [4] 0.107 | [5] 0.044 | [6] 0.055 | [7] -0.068 | [8] 0.02 | [9] -0.027 | [10] -0.106 | [11] -0.146 | [12] -0.116 | [13] 0.01 | [14] 0.067 | [15] 0.044 | [16] 0.336 | [17] -0.108 | [19] -0.097
